These are yes or no findings as the source states them, for the method shown. Sequences can lack the tags named with a protein.

The experiment concerns the target VEGFA. The experiment in a line: sensorgram (SPR by the legend, axis in nm); FGFR1-CCD injected over immobilized VEGFA as null ligand.

B1: FGFR1-CCD fusion protein (receptor)
chain: RPSPTLPEQAQPWGAPVEVESFLVHPGDLLQLRCRLRDDVQSINWLRDGVQLAESNRTRITGEEVEVQDSVPADSGLYACVTSSPSGSDTTYFSVNVSDALPSSEDDDDDDDSSSEEKETDNTKPNPVAPYWTSPEKMEKKLHAVPAAKTVKFKCPSSGTPNPTLRWLKNGKEFKPDHRIGGYKVRYATGSIIMDSVVPSDKGNYTCIVENEYGSINHTYQLDVVERSPHRPILQAGLPANKTVALGSNVEFMCKVYSDPQPHIQWLKHIEVNGSKIGPDNLPYVQILKTAGVNTTDKEMEVLHLRNVSFEDAGEYTCLAGNSIGLSHHSAWLTVLEALEERPAVMLKEFMGYQGPPGPPGPPGIPGNHGNNGNNGATGHEGAKGEKGDKGDLGPRGERGQHGPKGEKGYPGIPGYCGPPGPPGPPGIPGNHGNNGNNGATGHEGAKGEKGDKGDLGPRGERGQHGPKGEKGYPGIPDYKDDDDKLQISSTVAAAHHHHHHV
Regarding B1, the binding entry was “no binding”.
